# Results as given in PubChem BioAssay AID493014 (National Center for Advancing Translational Sciences (NCATS), 2011).
# The other results are listed elsewhere or left out. Shown are side measurements of this screen, not its main read-out; they come without a call. Most of these compounds were active or inconclusive in the main read-out, so they are no random draw. The note in brackets gives the kind of curve behind each potency; many fits are weak.
# Assay: qHTS Assay to Find Inhibitors of Chronic Active B-Cell Receptor Signaling
# Conditions: ABC-DLBCL IkBa-CBG/CBR reporter, luminescence ratio (green luciferase fused to IkBa over red control in TMD8 lymphoma cells), 4 h
# How it was run: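 Doxycycline induced both beetle luciferases in TMD8 lymphoma cells; IKK-driven degradation limits the IkappaBalpha-fused green signal, while red luminescence normalises for cell number and nonspecific effects. Compounds tested up to 46 uM, 4 hrs.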
# [1] = measured here: CBR red luminescence, cell number
Structure (SMILES),AC50 [1],AC50 (measured here: IkBa-CBG green luminescence)
CCCCCCNS(=O)(=O)c1ccc(Cl)s1,"0.517 µM [rising, partial curve, poor fit]",
Nc1nc(CN2CCOCC2)cs1,"29.1 µM [rising, single point]",
CCCc1cc(-c2nc(-c3ccc(Cl)cc3)cs2)ccn1,"2.82 µM [rising, partial curve, poor fit]",
CCCOc1ccc(C(=O)c2nc3c(n2O)CCCC3)cc1,"0.891 µM [rising, full curve, poor fit]",
Cc1cccc(N=C2NN=C(c3ccccc3F)CS2)c1C,"35.5 µM [falling, single point]",
Cc1cccnc1NC(=O)CCc1c[nH]c2ccccc12,"7.08 µM [falling, full curve, poor fit]",
CCNS(=O)(=O)c1ccc(NC(=O)Nc2ccccc2OC)cc1,"2.51 µM [falling, full curve, poor fit]",
Cc1nc2nc(SCC(N)=O)[nH]c2cc1Br,"0.00651 µM [falling, full curve, poor fit]",
O=c1c2c(nc3nc(SCc4ccccc4)[nH]n13)CCC2,"0.891 µM [falling, full curve]",
CCC(=O)c1c[nH]c(C(=O)NCc2ccccc2OC)c1,"10 µM [falling, partial curve, poor fit]",
CCOC(=O)c1ccc(NC(=O)c2nc[nH]c2C(=O)NC)cc1,"3.55 µM [rising, full curve, poor fit]",
Cc1cc(C)cc(N(CC(=O)NC2CCCCC2)C(=O)CCCC(=O)Nc2ccccn2)c1,"11.2 µM [falling, single point]",
Cc1ccsc1C(=O)NN=C1CCCCCC1,"2 µM [falling, full curve]",
Cc1ccc(C2=NN3C(C2)c2ccccc2OC32C(=O)Nc3ccccc32)cc1 (stereo unspecified),"3.98 µM [falling, partial curve, poor fit]",
COc1ccc(Cl)cc1NC(=O)COc1ccc2c(c1)OCO2,"0.92 µM [rising, partial curve, poor fit]",
COCCOc1nc2c(c(=O)n(C)c(=O)n2C)n1CCc1ccccc1,"1 µM [falling, partial curve, poor fit]",
COc1ccc(C(=O)Nn2c(SCC(=O)c3ccc(Cl)cc3)nc3ccccc3c2=O)cc1,"2.24 µM [falling, full curve]",
Cc1ccc(Cl)cc1N1CCN(C(=O)c2ccc3c(c2)CCN3S(C)(=O)=O)CC1,"35.5 µM [falling, single point]",
O=C(O)Cc1ccc(NC(=O)c2ccc3c(c2)C(=O)N(Cc2ccco2)C3=O)cc1,"12.6 µM [falling, single point]",
CC(C)(C)c1cc(CCC(=O)N2CCNCC2)c(C(C)(C)C)cc1O,"0.411 µM [falling, full curve, poor fit]",
COc1ccc(NC(=O)CSCC(=O)Nc2cc(Cl)ccc2N2CCCC2)cc1,"35.5 µM [falling, single point]",
CC1c2[nH]c3ccccc3c2CCN1C(=O)Nc1ccccc1 (stereo unspecified),"20.6 µM [falling, single point]",

Structure (SMILES),AC50 [1],AC50 (measured here: IkBa-CBG green luminescence)
Cc1onc(-c2ccccc2)c1C(=O)N/N=C/c1cc(Br)c(Br)o1,"20.6 µM [falling, single point]",
O=C(NCc1ccccc1)c1ccc(CN(c2ccccn2)S(=O)(=O)c2ccccc2)cc1,"0.501 µM [falling, full curve]",
Cc1onc(-c2ccc(Cl)cc2Cl)c1-c1csc(N/N=C/c2ccccc2)n1,"0.708 µM [falling, full curve, poor fit]",
CCCNC(=O)c1ccc2c(c1)ncn2-c1ccc(C)cc1C,"7.94 µM [rising, partial curve, poor fit]",
COC(=O)c1cc2c(=O)n3ccccc3nc2n(C)c1=N,"35.5 µM [falling, single point]",
CCOC(=O)c1c(NC(=O)CS(=O)(=O)c2ccc(C)cc2)sc2c1CCCCC2,"22.4 µM [rising, single point]",
COc1ccc(N2C(N)=C(C#N)C(c3ccsc3)C3=C2CCCC3=O)c(OC)c1 (stereo unspecified),"9.2 µM [rising, partial curve, poor fit]",
O=C(CNC(=O)c1ccccc1)NCC(=O)OCc1ccccc1Cl,"15.8 µM [rising, single point]",
Cn1c(NNC(=O)CCC2CCCCC2)cc(=O)n(C)c1=O,"29.1 µM [falling, single point]",
COc1ccc(-c2cc(C)no2)cc1S(=O)(=O)N1CCCN(Cc2ccccc2Cl)C1,"35.5 µM [falling, single point]",
COc1ccc(NC(=O)CSc2nc3c(c(=O)n2-c2ccc(C)cc2)SCC3)c(OC)c1,"0.13 µM [rising, full curve, poor fit]",
CC1CCN(c2nc3ccc(C(=O)N4CCN(Cc5ccccc5)CC4)cc3s2)CC1,"29.1 µM [falling, single point]",
CCN(CC(=O)Nc1ccc2c(c1)OCCO2)S(=O)(=O)c1cccs1,"0.58 µM [falling, full curve, poor fit]",
CCN(CC)S(=O)(=O)c1ccc(S(=O)(=O)N2CCN(C(=O)c3ccco3)CC2)cc1,"16.4 µM [rising, single point]",
S=C(NCc1ccco1)Nc1ccc(Oc2ccccc2)cc1,"2 µM [rising, partial curve, poor fit]",
COc1ccc(C(=O)Nc2ccc(C(=O)N3CCCC3)cc2)cc1[N+](=O)[O-],"4.47 µM [falling, full curve, poor fit]",
COc1ccc(/C=C/C(=O)Nc2c(C(=O)O)[nH]c3ccccc23)cc1OC,"14.1 µM [falling, single point]",
COc1cccc(Nc2nc(-c3cccnc3)cs2)c1,"35.5 µM [falling, single point]",
C#CCSc1nc(C)cc(C(=O)OCC)c1C#N,"10 µM [rising, partial curve, poor fit]",
Cc1ccc(Cn2nnc3c(=O)n(CC(=O)OCc4ccccc4)cnc32)cc1,"23.1 µM [falling, single point]",
N#Cc1c(NC(=O)C2CC(Cl)=CCC2C(=O)O)sc2c1CCCC2 (stereo unspecified),"25.1 µM [falling, single point]",
COc1cccc(/C=N\NC(=O)c2ccc(Cn3cc(Br)c([N+](=O)[O-])n3)o2)c1O,"2.82 µM [falling, full curve]",

Structure (SMILES),AC50 [1],AC50 (measured here: IkBa-CBG green luminescence)
N#CC1=C(N)N(c2ccc(Oc3ccccc3)cc2)C(=O)C1,"0.146 µM [rising, full curve, poor fit]",
CCSc1cc(N2CCCC2)nc(-c2ccc(C)cc2)n1,"23.1 µM [rising, single point]",
COc1cc(OC)cc(C(=O)NC(=S)Nc2ccc(NC(=O)c3ccco3)cc2)c1,"4.11 µM [rising, partial curve]",
CCCCn1c(O)c(N=NC(=O)c2ccncc2)c2cc(Br)ccc21,"8.2 µM [rising, partial curve]",
CCN(C(=O)COC(=O)c1cnccn1)c1cccc2ccccc12,"9.2 µM [rising, partial curve, poor fit]",
CN1CCN(C(=O)C2=C[C@@H](c3coc4ccccc4c3=O)C[C@@H](OCc3ccc(CO)cc3)O2)CC1,"6.31 µM [rising, full curve, poor fit]",
NC(=O)C1(N2CCCCC2)CCN(C(=O)NC23CC4CC(CC(C4)C2)C3)CC1,"0.651 µM [rising, partial curve, poor fit]",
C/C(=N\N1CCN(c2ccccc2)CC1)c1ccncc1,"35.5 µM [rising, single point]",
COc1cc(/C=C(/C#N)c2nc3ccccc3[nH]2)ccc1OC(=O)c1ccco1,"7.31 µM [falling, partial curve]",
COc1cc(OC)c(C(=O)OCC(=O)NCC2CCCCC2)cc1OC,"3.26 µM [rising, full curve]",
CS(=O)(=O)NNC(=O)c1cc2cc3ccccc3nc2s1,"6.31 µM [falling, partial curve, poor fit]",
COc1ccccc1-c1ccc(SCc2cccc(F)c2)nn1,"22.4 µM [falling, partial curve]",
Cc1cc(=O)[nH]c(N/N=C/c2sccc2C)n1,"5.17 µM [falling, partial curve]",
O=C(O)c1cccc2c1C(=O)c1ccc(-c3ccc(F)cc3OCc3ccccc3)cc1S2(=O)=O,"29.1 µM [falling, single point]",
COc1ccc(NC(=O)Cc2csc(NC(=O)Nc3ccccc3OC)n2)c(OC)c1,"7.31 µM [falling, partial curve, poor fit]","9.2 µM [rising, partial curve, poor fit]"
O=C(O)c1cccc(CSc2nnc(-c3cccnc3)o2)c1,"14.1 µM [falling, partial curve, poor fit]",
Nn1cnnc1N/N=C/c1ccc(Cl)c([N+](=O)[O-])c1,"35.5 µM [falling, single point]",
O=C(CCNc1ccccc1)c1ccc2c(c1)OCO2,"31.6 µM [falling, single point]",
COc1cc(/C=C2\SC(c3ccc(C)cc3)=NC2=O)cc(OC)c1OC,"29.1 µM [falling, single point]",
COc1cc(N2C(=O)CSC2=S)cc(OC)c1OC,"35.5 µM [falling, single point]",
Cc1nc2c(c(=O)n1Cc1ccccc1Cl)c1nc3ccccc3nc1n2Cc1ccco1,"4.11 µM [falling, partial curve, poor fit]",
